Source: the supplement of paper PMC10403144
Some of the results follow.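 Rule for the calls: active = mitochondrial OCR inhibition above 30% at 1 uM; inactive = 30% or less.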 Single values are uncertain, as repeats are few or missing.

Test system: Toxoplasma gondii RH tachyzoites
Assay: inhibition of mitochondrial O2 consumption rate (% inhibition (relative to pre-injection OCR and atovaquone/antimycin A control)); higher = stronger ETC inhibition
Details: 1 µM; injection port (sequential injection order): A

Row | SMILES | inhibition of mitochondrial O2 consumption rate
1 | COc1ccc(-c2nc(-c3cccc(NC(=O)Cc4ccc(F)cc4)c3)no2)cc1OC | inactive: -2.36
2 | COc1cccn2c(C(=O)N3CCCCC3)c(C(F)(F)F)nc12 | inactive: 8
3 | c1ccc(Oc2ccc(-c3cncc(-c4ccc5[nH]ccc5c4)n3)cc2)cc1 | inactive: -2.68
4 | CS(=O)(=O)Cc1nc2ccccc2oc1=O | inactive: -3.01
5 | Cc1cc(C)cc(COc2ccc3c(C)c(CCC(=O)O)c(=O)oc3c2C)c1 | inactive: -5.32
6 | CCn1cnc2c(Nc3cc(F)cc(F)c3)nc(C#N)nc21 | inactive: -3.35
7 | COc1ccc(-c2cnc3ccc(N4CCCC4)nn23)cc1OC | inactive: 0.0852
8 | CNc1snc(C)c1C(=O)NCCOc1ccc(OC)cc1 | inactive: -4.19
9 | O=C(Nc1cccnc1)c1c(O)c2cccc3c2n(c1=O)CC3 | inactive: 2.83
10 | FC(F)(F)c1cnc(Sc2nnc(-c3ccncc3)o2)c(Cl)c1 | inactive: -5.94
11 | COc1cc(C2=NCCN2)ccc1-c1cn(-c2cccc(C3=NCCN3)c2)nn1 | inactive: -3.74
12 | CCCn1c(CNc2ccccc2O)nc2ccccc21 | inactive: -2.42
13 | COc1cccc(-n2nnnc2S(=O)(=O)Cc2ccccc2)c1 | inactive: 4.65
14 | CS(=O)(=O)c1cccc(-c2cnc3[nH]cc(-c4ccc(CCC(=O)O)cc4)c3c2)c1 | inactive: 5.37

Among those listed so far, 2 have a CF3 group:
Row | SMILES | inhibition of mitochondrial O2 consumption rate
2 | COc1cccn2c(C(=O)N3CCCCC3)c(C(F)(F)F)nc12 | inactive: 8
10 | FC(F)(F)c1cnc(Sc2nnc(-c3ccncc3)o2)c(Cl)c1 | inactive: -5.94

Same assay, conditions: 1 µM; injection port (sequential injection order): B

Row | SMILES | inhibition of mitochondrial O2 consumption rate
15 | COc1cccc(-n2nnnc2S(C)(=O)=O)c1 | inactive: 6.65
16 | CC(=O)Nc1ccc(NC(=O)c2cc(-c3cc(Cl)ccc3O)[nH]n2)cc1 | inactive: -1.57
17 | Cc1ccc(NC(=O)c2nc[nH]c2C(=O)Nc2nc3ccccc3[nH]2)c(C)c1 | inactive: -0.296
18 | c1ccc(-c2cc(N3CCCCC3)c3ccccc3n2)nc1 | inactive: -6.74
19 | CNc1nnc(Sc2cnn(-c3ccccc3)c(=O)c2Cl)s1 | inactive: 5.62
20 | Cc1cc(C)n2nc(C(=O)Nc3cc(C(F)(F)F)ccc3N3CCOCC3)nc2n1 | inactive: -12.8
21 | Cc1cc(C(=O)Nc2ccc(-c3ccccc3)cc2)no1 | inactive: -0.431
22 | CCCCCCCCCCCCCCCCOP(=O)([O-])OCC[N+](C)(C)C | inactive: -9.06
23 | CN(C)c1cc(NC(=O)Nc2ccccc2)c2ccccc2n1 | inactive: 3.23
24 | COc1ccc(C2=NN(C3CCCCCC3)C(=O)[C@@H]3CC=CC[C@H]23)cc1OCCCCOc1ccc(-c2nn[nH]n2)cc1 | inactive: 3.19

Same assay, conditions: 1 µM; injection port (sequential injection order): C

Row | SMILES | inhibition of mitochondrial O2 consumption rate
25 | Cc1cc(NCC(C)C)c2n[nH]c(-c3ccccc3)c2n1 | inactive: -17.1
26 | CCn1ncc2c(NC3CCOCC3)c(CNC(=O)c3ccnn3C)c(C)nc21 | inactive: -4.14
27 | CN1CCN(CCCOc2ncc(Nc3ncc(-c4ccc(C(F)(F)F)c(F)c4)nc3C(N)=O)cn2)CC1 | inactive: -2.95
28 | O=C(Nc1ccccc1)c1ccc(-c2cc3ccncc3cc2OC2CCNCC2)s1 | inactive: -10.4
29 | CCC(Sc1nc2ccccc2o1)C(=O)Nc1nnc(C)s1 (stereo not drawn) | inactive: -26.4
30 | CC(C)(C)c1cnc(NC(=O)c2ccccc2O)s1 | inactive: -6.79
31 | CCCc1ccc(S(=O)(=O)Nc2ccc(CN3CCN(CC4CC4)CC3)cc2)cc1 | inactive: 0.475
32 | Cc1ccc(S(=O)(=O)Nc2ccc(CN3CCN(C(=O)c4cccc(C#N)c4)CC3)cc2)cc1 | inactive: -7.99
33 | CCOc1ccccc1C(=O)Nc1cccc(-c2nc3ncccn3c2C)c1 | inactive: 3.11
34 | CC1CCCN(C(=O)C(C)Nc2cc(Cl)ccc2N2CCOCC2)C1 (stereo not drawn) | inactive: -14.1
35 | COc1ccc(C2=NCCN2)cc1-c1cn(-c2cccc(C3=NCCN3)c2)nn1 | inactive: -13.4
36 | CC(=O)NCC1CN(c2ccc(-c3ccc(CO)cc3)c(F)c2)C(=O)O1 (stereo not drawn) | inactive: -13.5
37 | COc1ccc(Oc2ccc([C@@H](C)N(C)c3ncc4c(N)nc(N)nc4n3)cc2)cc1 | inactive: -5.25
38 | COc1ccc2nc(C)cc(OCC(=O)NCc3ccccc3)c2c1 | inactive: -21.7
